Literature values in US10179153B2, “Probiotic and prebiotic compositions” (AQUILON CYL SOCIEDAD LIMITADA, priority 2014, dated 2019).
For at least one compound, name, drawing or mass did not settle the structure.

Key:
[1] = test system: AqSynRMH69 strain; conditions: cut-off used for AqSynRMH69 (Lactobacillus reuteri); cited from earlier work
[2] = test system: AqSynJ59 strain; conditions: cut-off used for AqSynJ59 (Lactobacillus plantarum); cited from earlier work

| SMILES | EFSA (2012) values (microbiological cut-off) [1] | EFSA (2012) values (microbiological cut-off) [2] |
| --- | --- | --- |
| CCC[C@@H]1C[C@@H](C(=O)N[C@@H]([C@H]2O[C@H](SC)[C@H](O)[C@@H](O)[C@H]2O)[C@H](C)Cl)N(C)C1 [Clindamycin] | 1 | 1 |
| NC[C@H]1O[C@H](O[C@H]2[C@H](O)[C@@H](O[C@H]3O[C@H](CO)[C@@H](O)[C@H](N)[C@H]3O)[C@H](N)C[C@@H]2N)[C@H](O)[C@@H](O)[C@@H]1O [Kanamycin] | 64 | 64 |
| CN(C)[C@@H]1C(O)=C(C(N)=O)C(=O)[C@@]2(O)C(O)=C3C(=O)c4c(O)cccc4[C@@](C)(O)[C@H]3C[C@@H]12 [Tetracycline] | 16 | 32 |
